Experimental findings from PMC8615698 are described below.

Chains of the proteins cited; added tags and fusions are not shown. Residues count along the entry.
UniProt P07207, residues 53-2703: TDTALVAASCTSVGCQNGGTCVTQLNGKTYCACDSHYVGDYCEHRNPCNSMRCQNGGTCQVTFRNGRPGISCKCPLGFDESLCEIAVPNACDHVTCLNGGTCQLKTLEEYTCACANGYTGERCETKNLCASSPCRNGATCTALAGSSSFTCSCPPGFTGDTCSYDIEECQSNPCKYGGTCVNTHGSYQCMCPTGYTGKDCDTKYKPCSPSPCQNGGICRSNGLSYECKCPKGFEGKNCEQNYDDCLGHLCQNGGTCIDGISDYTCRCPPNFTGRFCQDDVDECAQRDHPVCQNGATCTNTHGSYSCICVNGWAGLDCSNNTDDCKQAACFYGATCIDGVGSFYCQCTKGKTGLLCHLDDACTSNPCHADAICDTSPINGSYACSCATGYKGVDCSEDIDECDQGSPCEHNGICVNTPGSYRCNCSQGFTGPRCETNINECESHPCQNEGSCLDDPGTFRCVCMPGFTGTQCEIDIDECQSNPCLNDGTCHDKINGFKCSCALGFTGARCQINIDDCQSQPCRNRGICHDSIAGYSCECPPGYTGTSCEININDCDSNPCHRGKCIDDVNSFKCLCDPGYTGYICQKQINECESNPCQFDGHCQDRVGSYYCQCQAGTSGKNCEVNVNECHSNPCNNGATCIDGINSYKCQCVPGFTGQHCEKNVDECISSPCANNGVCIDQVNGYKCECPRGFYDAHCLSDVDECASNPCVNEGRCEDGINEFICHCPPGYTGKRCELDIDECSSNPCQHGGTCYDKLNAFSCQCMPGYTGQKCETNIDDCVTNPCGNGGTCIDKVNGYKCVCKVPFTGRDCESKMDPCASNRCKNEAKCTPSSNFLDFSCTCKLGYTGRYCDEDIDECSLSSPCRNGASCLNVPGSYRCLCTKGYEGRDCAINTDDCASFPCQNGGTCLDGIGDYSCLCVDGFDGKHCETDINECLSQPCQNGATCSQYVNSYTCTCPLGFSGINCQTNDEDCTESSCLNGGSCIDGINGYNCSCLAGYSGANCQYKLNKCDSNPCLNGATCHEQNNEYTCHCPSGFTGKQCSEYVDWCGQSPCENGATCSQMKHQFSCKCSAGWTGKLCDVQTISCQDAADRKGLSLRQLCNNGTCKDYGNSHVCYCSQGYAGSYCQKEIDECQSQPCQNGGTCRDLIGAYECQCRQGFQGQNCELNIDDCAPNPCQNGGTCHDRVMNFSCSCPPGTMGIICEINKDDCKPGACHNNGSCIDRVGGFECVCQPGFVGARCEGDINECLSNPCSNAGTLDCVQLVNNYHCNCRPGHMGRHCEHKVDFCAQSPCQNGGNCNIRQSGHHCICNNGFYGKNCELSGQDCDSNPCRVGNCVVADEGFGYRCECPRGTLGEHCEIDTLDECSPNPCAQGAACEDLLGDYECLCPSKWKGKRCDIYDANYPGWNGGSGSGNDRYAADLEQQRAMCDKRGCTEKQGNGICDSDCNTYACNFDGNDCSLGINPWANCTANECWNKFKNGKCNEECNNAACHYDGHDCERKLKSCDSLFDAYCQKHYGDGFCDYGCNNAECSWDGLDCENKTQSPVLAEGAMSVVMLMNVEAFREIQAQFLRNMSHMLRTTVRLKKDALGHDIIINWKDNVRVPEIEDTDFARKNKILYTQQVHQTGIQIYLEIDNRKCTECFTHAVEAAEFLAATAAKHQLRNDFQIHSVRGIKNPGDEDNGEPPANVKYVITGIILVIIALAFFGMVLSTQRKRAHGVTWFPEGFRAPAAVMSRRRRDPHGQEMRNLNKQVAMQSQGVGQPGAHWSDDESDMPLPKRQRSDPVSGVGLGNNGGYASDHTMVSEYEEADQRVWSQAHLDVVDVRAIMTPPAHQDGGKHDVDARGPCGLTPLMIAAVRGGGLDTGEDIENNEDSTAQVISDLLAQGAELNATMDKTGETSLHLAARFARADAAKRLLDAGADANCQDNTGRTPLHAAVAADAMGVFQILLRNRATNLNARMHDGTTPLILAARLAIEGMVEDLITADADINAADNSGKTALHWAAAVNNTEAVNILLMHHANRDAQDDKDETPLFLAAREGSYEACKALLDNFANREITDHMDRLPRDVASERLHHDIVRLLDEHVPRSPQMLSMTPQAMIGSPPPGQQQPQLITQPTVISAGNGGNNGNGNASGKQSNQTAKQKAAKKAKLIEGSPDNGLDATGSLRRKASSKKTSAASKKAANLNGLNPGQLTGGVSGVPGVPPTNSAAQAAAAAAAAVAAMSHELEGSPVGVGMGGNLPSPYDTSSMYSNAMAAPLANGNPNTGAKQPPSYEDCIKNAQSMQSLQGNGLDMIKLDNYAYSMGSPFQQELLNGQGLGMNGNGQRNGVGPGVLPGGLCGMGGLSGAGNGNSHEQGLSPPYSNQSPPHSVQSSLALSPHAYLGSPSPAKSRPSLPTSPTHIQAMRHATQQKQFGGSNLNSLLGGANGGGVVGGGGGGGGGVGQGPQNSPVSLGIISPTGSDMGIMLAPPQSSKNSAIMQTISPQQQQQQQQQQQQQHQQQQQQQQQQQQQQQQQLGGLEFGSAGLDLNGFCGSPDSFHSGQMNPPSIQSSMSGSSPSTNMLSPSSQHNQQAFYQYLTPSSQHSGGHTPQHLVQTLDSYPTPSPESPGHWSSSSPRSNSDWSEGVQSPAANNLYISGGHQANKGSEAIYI

No constants are given. Whether binding was seen depends on the method and setting. Some binding calls cover weakened binding; strength is not graded here. Where a sequence is shown, tags or fusion partners need not be part of it.

For this test, the target named is T1, Delta (full-length Delta-MYC) (Drosophila melanogaster) (UniProt P10041).
T1 sequence: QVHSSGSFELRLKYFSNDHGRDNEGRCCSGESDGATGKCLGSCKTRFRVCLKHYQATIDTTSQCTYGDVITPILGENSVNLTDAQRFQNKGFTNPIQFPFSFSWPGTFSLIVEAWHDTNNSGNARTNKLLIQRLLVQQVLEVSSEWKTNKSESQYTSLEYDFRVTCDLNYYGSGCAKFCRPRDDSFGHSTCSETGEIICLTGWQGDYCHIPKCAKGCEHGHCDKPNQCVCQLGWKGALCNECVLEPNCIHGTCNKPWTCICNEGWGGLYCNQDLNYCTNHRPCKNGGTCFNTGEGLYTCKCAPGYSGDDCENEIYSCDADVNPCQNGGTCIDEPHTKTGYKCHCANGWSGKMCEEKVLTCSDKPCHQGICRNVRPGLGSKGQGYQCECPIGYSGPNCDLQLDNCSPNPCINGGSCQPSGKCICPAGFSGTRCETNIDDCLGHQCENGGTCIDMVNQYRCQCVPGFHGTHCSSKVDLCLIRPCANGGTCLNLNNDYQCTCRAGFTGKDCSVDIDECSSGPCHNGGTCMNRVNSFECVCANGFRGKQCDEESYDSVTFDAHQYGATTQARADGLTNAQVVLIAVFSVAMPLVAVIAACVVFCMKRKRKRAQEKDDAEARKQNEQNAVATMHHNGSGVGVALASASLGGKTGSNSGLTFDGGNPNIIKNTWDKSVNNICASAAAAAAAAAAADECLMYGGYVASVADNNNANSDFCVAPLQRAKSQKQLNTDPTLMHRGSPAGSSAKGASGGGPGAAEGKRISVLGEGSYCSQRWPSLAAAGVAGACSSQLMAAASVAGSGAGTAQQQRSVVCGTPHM
In words: cell aggregation assay; S2 cells expressing full-length Notch or Delta-MYC (induced with 0.7 mM CuSO4), alone or mixed, 30 min in 2 mL on a belly dancer, then 15 min on poly L-lysine slides, fixed; light microscopy or antibody staining; also done after RNAi against mnr transcripts RA and/or RC, with no influence on clustering.

Turning to “Notch receptor (full-length Notch) (from UniProt P07207 53-2703)”, the binding entry was “binds”.

B1: Delta (full-length Delta-MYC) (ligand, UniProt P10041 19-833)
chain: T1 sequence
In the case of B1, the binding result was “binds”.
